# From patent US12655436B2, “Import of unnatural or modified nucleoside triphosphates into cells via nucleic acid triphosphate transporters” (The Scripps Research Institute, priority 2014, dated 2026)
# Experiment: Nucleotide extraction from cells for HPLC analysis: recovery and triphosphate decomposition
# Design: species or system E. coli
# Conditions: cytoplasmic fraction extraction for HPLC quantification
# Description: To minimize the effect of the lysis and triphosphate extraction protocols on the decomposition of nucleoside triphosphate within the cell, the following extraction procedure was discovered that led to an unexpectedly highest recovery with and low extent of decomposition (Table 9). Cells were grown, washed, and then 5 nmol of either dNaMTP or d5SICSTP was added to the pellets, which were then subjected to various types of extractions including boiling water, hot ethanol, cold methanol, freeze and thaw, lysozyme, glass beads, NaOH, trichloroacetic acid (TCA) with Freon, and perchloric acid (PCA) with KOH. The recovery and composition of the control was quantified by HPLC. […] Pellets were resuspended in ice cold KPi (50 mM, 250 μl) before addition of NaOH to decrease dephosphorylation after cell lysis (Method 4).
row,Compound,loss from the extraction step
1,COc1cc2ccccc2cc1[C@H]1C[C@H](O)[C@@H](CO)O1 [dNaM],62%
2,Cc1ccc2c(=S)n([C@H]3C[C@H](O)[C@@H](CO)O3)ccc2c1 [d5SICS],70%
